# Results from patent US20030147847A1 (IMMUNEX, published 2003).
# Protein sequences, listed by entry. Tags and fused reporters are not part of them. Lines headed by an entry give the natural chain unless they say otherwise; changes in a name come on top.
# UniProt Q9BZM6: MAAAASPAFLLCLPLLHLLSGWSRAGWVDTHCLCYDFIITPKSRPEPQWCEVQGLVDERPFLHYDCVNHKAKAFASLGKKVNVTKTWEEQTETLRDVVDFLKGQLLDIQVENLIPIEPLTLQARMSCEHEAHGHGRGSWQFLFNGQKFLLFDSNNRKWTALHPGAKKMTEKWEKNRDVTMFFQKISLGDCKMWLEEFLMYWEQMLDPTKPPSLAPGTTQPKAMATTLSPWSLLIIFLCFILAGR
# No constants are given. Whether binding was seen depends on the method and setting. Some entries that bind do so weakly or less than the wild type. Where a sequence is shown, tags or fusion partners need not be part of it.
# T1: NKG2D/Dap10 on transfected 293E cells (UniProt P26718 1-216; Q9UBK5 19-93)
# T1 construct: whole, on cells; Co-expressed on 293 EBNA (293E) cells from the pDC409 vector; also called NKG2D+FLAG tagged Dap10
# T1 sequence 1: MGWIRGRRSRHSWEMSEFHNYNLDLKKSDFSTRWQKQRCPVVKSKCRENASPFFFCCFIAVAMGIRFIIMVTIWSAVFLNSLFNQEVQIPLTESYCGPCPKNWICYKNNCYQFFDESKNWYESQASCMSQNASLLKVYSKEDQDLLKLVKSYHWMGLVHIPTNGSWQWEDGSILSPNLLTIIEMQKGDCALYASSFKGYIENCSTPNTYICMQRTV
# T1 sequence 2: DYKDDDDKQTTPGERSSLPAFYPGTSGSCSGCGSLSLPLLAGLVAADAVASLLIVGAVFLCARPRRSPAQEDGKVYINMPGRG
# T2: Full length UL16 on transfected 293 EBNA cells (human cytomegalovirus) (UniProt P16757)
# T2 sequence: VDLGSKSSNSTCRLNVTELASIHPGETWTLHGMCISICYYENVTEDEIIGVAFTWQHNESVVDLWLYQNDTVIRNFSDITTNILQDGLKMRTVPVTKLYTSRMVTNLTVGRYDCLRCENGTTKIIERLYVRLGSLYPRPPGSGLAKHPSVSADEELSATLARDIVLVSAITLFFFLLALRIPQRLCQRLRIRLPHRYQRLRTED
# Key:
# [1] = biological target: T1, NKG2D/Dap10 on transfected 293E cells; test: flow cytometry on transfected 293 EBNA cells
# [2] = biological target: T1, NKG2D/Dap10 on transfected 293E cells; test: flow cytometry on transfected 293 EBNA cells (Example 7)
# [3] = biological target: T2, Full length UL16 on transfected 293 EBNA cells (human cytomegalovirus); test: flow cytometry on 293 EBNA cells transfected with full length UL16 (control)
# [4] = biological target: ULBP-1 polypeptide (human) (UniProt Q9BZM6); test: expression cloning by binding of UL16-Fc
binder,measurement,setting,value
"ULBP3/Fc (Fc fusion, That entry lacks the first five residues of the leader and still holds the rest of the signal peptide and the GPI signal; not shown: Fc portion of ULBP3/Fc is not described) DAHSLWYNFTIIHLPRHGQQWCEVQSQVDQKNFLSYDCGSDKVLSMGHLEEQLYATDAWGKQLEMLREVGQRLRLELADTELEDFTPSGPLTLQVRMSCECEADGYIRGSWQFSFDGRKFLLFDSNNRKWTVVHAGARRMKEKWEKDSGLTTFFKMVSMRDCKSWLRDFLMHRKKRLEPTAPPTMAPG",binding,[1],binds
same,binding,[2],binds
"MICB/Fc (Fc fusion, UniProt Q29980 23-309, looked up, also called MICB1/FC; not shown: Fc portion not described) AEPHSLRYNLMVLSQDGSVQSGFLAEGHLDGQPFLRYDRQKRRAKPQGQWAENVLGAKTWDTETEDLTENGQDLRRTLTHIKDQKGGLHSLQEIRVCEIHEDSSTRGSRHFYYDGELFLSQNLETQESTVPQSSRAQTLAMNVTNFWKEDAMKTKTHYRAMQADCLQKLQRYLKSGVAIRRTVPPMVNVTCSEVSEGNITVTCRASSFYPRNITLTWRQDGVSLSHNTQQWGDVLPDGNGTYQTWVATRIRQGEEQRFTCYMEHSGNHGTHPVPSGKALVLQSQRTD",binding,[3],binds
"UL16-Fc fusion protein (Fc fusion, extracellular domain; not shown: IgG1 Fc (mutein form), as described for OX40-Fc (Baum et al., EMBO J. 13:3992-4001, 1994); the mutein is described in p-) VDLGSKSSNSTCRLNVTELASIHPGETWTLHGMCISICYYENVTEDEIIGVAFTWQHNESVVDLWLYQNDTVIRNFSDITTNILQDGLKMRTVPVTKLYTSRMVTNLTVGRYDCLRCENGTTKIIERLYVRLGSLYPRPPGSGLAKHPSVSADEELSA",binding,[4],binds
"MICA/Fc (Fc fusion, UniProt Q29983 24-307, looked up, not shown: Fc portion not described) EPHSLRYNLTVLSWDGSVQSGFLTEVHLDGQPFLRCDRQKCRAKPQGQWAEDVLGNKTWDRETRDLTGNGKDLRMTLAHIKDQKEGLHSLQEIRVCEIHEDNSTRSSQHFYYDGELFLSQNLETKEWTMPQSSRAQTLAMNVRNFLKEDAMKTKTHYHAMHADCLQELRRYLKSGVVLRRTVPPMVNVTRSEASEGNITVTCRASGFYPWNITLSWRQDGVSLSHDTQQWGDVLPDGNGTYQTWVATRICQGEEQRFTCYMEHSGNHSTHPVPSGKVLVLQSHW",binding,[2],binds
